According to the supplement of paper PMC12823440, “Inhibitors supercharge kinase turnover through native proteolytic circuits” (Nature, 2025):
Where a name gives a salt, the structure may show the parent alone. This is one part of the list. Hit calls seldom repeat between salt and free forms of one compound.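 In K562 cells expressing nanoluciferase-fused kinases, luminescence was recorded at 4 h intervals between 2 and 18 h, normalized as percent of control with DMSO at 100% and a positive control at 0%. A significant (2 sigma) signal drop marks a time point as decreased. The authors' rule for a hit is not shown and takes in more than the number of time points.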

Protein sequences, listed by entry. Tags and fused reporters are not part of them.
UniProt P29317, whole entry: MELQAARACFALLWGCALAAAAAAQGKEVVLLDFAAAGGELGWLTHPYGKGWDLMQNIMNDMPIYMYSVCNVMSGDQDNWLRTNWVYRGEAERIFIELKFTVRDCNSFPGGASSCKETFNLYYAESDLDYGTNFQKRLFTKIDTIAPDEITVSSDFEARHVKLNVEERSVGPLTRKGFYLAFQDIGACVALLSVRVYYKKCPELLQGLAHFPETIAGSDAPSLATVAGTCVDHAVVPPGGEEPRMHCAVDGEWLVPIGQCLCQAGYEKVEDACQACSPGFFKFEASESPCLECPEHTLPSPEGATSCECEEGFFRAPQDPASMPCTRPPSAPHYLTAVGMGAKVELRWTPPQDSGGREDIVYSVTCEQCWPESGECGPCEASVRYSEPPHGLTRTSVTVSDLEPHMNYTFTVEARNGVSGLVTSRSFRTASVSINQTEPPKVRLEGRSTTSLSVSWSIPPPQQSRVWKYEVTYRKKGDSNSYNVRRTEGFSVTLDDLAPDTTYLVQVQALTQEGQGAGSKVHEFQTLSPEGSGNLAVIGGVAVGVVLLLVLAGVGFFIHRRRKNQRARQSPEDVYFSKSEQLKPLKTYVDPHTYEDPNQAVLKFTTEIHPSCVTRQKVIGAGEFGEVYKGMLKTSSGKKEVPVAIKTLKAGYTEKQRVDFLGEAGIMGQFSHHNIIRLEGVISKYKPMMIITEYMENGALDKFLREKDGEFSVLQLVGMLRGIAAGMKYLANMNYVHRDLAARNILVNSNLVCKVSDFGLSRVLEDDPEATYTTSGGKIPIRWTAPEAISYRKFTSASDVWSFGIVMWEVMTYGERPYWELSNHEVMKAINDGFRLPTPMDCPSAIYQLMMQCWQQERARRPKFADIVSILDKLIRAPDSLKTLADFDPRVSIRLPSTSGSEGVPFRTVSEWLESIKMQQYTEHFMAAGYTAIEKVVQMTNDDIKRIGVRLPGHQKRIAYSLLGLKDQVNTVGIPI
UniProt P21860, whole entry: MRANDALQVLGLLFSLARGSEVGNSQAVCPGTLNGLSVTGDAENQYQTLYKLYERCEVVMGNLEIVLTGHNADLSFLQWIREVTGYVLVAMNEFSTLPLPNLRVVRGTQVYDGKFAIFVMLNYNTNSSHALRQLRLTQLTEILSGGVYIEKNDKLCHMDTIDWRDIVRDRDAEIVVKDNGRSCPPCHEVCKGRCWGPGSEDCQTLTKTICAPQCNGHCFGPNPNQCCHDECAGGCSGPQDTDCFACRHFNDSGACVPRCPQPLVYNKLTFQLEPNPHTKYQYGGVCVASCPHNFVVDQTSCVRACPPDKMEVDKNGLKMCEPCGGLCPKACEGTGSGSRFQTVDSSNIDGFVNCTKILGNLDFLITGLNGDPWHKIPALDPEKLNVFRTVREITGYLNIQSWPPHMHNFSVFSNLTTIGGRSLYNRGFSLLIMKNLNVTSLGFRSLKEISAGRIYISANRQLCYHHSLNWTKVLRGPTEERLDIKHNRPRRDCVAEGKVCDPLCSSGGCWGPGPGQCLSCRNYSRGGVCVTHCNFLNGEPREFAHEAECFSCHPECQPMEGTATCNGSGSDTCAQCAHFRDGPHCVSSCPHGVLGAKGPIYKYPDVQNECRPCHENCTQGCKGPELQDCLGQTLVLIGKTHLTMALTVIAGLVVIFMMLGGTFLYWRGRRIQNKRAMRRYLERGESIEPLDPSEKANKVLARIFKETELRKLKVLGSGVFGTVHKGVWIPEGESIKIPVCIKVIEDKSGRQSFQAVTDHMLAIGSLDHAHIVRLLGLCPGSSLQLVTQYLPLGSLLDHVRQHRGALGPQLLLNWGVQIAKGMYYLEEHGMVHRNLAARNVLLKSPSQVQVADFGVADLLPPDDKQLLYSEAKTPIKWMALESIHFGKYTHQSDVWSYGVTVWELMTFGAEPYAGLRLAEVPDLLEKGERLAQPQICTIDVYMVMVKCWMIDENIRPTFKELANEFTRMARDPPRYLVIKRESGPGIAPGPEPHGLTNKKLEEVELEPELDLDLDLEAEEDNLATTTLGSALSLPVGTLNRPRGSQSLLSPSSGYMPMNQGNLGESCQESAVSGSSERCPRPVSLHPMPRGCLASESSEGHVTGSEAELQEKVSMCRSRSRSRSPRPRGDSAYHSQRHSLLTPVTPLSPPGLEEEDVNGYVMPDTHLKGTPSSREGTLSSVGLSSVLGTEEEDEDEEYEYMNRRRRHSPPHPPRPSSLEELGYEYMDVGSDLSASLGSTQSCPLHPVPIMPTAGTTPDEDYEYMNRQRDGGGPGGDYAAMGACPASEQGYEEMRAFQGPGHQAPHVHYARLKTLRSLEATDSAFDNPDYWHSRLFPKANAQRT
UniProt Q15303, whole entry R711C: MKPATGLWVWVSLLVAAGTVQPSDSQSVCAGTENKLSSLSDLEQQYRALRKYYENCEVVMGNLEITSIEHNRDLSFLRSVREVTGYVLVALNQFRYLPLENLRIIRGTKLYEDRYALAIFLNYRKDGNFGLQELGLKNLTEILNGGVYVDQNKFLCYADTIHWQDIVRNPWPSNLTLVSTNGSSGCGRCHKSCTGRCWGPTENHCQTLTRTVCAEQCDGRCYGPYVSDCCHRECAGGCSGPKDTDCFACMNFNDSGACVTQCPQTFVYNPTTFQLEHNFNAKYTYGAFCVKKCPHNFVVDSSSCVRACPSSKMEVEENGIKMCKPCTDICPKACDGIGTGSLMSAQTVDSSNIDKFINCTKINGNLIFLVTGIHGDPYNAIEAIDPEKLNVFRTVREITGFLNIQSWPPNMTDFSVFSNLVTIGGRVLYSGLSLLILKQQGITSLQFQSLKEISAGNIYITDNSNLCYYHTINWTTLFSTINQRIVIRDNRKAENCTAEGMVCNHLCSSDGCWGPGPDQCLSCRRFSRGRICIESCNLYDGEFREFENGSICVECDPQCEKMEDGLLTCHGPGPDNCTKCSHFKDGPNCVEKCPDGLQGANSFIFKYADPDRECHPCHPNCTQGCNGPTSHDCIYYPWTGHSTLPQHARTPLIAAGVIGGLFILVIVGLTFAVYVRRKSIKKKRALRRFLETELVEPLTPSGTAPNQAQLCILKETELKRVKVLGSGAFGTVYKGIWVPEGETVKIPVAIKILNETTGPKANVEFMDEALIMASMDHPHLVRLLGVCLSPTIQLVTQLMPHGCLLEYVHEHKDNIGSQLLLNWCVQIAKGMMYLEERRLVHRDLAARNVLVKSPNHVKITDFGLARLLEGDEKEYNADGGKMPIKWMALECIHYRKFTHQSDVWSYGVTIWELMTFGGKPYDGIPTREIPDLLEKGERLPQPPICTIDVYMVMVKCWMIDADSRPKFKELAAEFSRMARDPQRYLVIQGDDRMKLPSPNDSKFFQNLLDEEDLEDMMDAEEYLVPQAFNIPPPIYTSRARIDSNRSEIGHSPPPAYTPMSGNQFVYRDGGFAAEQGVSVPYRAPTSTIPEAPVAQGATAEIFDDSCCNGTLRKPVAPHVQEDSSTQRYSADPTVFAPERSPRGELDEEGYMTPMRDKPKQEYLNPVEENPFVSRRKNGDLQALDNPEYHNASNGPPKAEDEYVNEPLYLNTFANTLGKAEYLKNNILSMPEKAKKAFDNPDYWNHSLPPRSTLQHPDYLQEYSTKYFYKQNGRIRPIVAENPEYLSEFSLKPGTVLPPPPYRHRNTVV

Key:
Experiment in all cases: kinase-Nluc reporter destabilization hit call (1 = scored as downregulated) (binary); higher = compound decreases kinase abundance
Conditions in all cases: K562; 2-18 h
EGFR = EGFR (UniProt P00533)
EGFR_G719S = EGFR_G719S (UniProt P00533)
EGFR_G719S_T790M = EGFR_G719S_T790M (UniProt P00533)
EGFR_L718V = EGFR_L718V (UniProt P00533)
EGFR_L858R = EGFR_L858R (UniProt P00533)
EGFR_L861Q = EGFR_L861Q (UniProt P00533)
EGFR_T790M = EGFR_T790M (UniProt P00533)
EPHA2 = EPHA2 (UniProt P29317)
ERBB3 = ERBB3 (UniProt P21860)
[1] = target: ERBB4_R711C (clone: ERBB4_mut) (UniProt Q15303)

Measured: kinase-Nluc reporter destabilization hit call

CC1(COc2ccc3c(c2)ncn3-c2ccc3cccc(N4CCC(N)CC4)c3n2)COC1 [Crenolanib] (2.5 µM)
inactive: EGFR 0 | EGFR_G719S 0 | EGFR_G719S_T790M 0 | EGFR_L718V 0 | EGFR_L858R 0 | EGFR_L861Q 0 | EGFR_T790M 0 | EPHA2 = 0 | ERBB3 = 0 | [1] 0

O=C(c1ccc(Nc2nccc(-c3cc4ccccc4s3)n2)cc1)N1CCC(N2CCCC2)CC1 (2.5 µM)
inactive: EGFR 0 | EGFR_G719S 0 | EGFR_G719S_T790M 0 | EGFR_L718V 0 | EGFR_L858R 0 | EGFR_L861Q 0 | EGFR_T790M 0 | EPHA2 = 0 | ERBB3 = 0 | [1] 0

O=Nc1c(-c2c(O)[nH]c3ccccc23)[nH]c2ccccc12 [Indirubin-3'-monoxime] (2.5 µM)
inactive: EGFR 0 | EGFR_G719S 0 | EGFR_G719S_T790M 0 | EGFR_L718V 0 | EGFR_L858R 0 | EGFR_L861Q 0 | EGFR_T790M 0 | EPHA2 = 0 | ERBB3 = 0 | [1] 0

NCCCCCCNS(=O)(=O)c1cccc2c(Cl)cccc12 [W-7 (hydrochloride)] (10 µM)
inactive: EGFR 0 | EGFR_G719S 0 | EGFR_G719S_T790M 0 | EGFR_L718V 0 | EGFR_L858R 0 | EGFR_L861Q 0 | EGFR_T790M 0 | EPHA2 = 0 | ERBB3 = 0 | [1] 0

Looked up by compound from the entries so far (2):
NCCCCCCNS(=O)(=O)c1cccc2c(Cl)cccc12 [W-7 (hydrochloride)] (10 µM)
inactive: EGFR 0 | EGFR_G719S 0 | EGFR_G719S_T790M 0 | EGFR_L718V 0 | EGFR_L858R 0 | EGFR_L861Q 0 | EGFR_T790M 0 | EPHA2 = 0 | ERBB3 = 0 | [1] 0

O=Nc1c(-c2c(O)[nH]c3ccccc23)[nH]c2ccccc12 [Indirubin-3'-monoxime] (2.5 µM)
inactive: EGFR 0 | EGFR_G719S 0 | EGFR_G719S_T790M 0 | EGFR_L718V 0 | EGFR_L858R 0 | EGFR_L861Q 0 | EGFR_T790M 0 | EPHA2 = 0 | ERBB3 = 0 | [1] 0

Next part:

O=C(O)c1cc(O)c2c(c1)[C@@H]([C@H]1c3cc(C(=O)O)cc(O)c3C(=O)c3c(O[C@@H]4O[C@H](CO)[C@@H](O)[C@H](O)[C@H]4O)cccc31)c1cccc(O[C@@H]3O[C@H](CO)[C@@H](O)[C@H](O)[C@H]3O)c1C2=O [Sennoside B] (2.5 µM)
inactive: EGFR 0 | EGFR_G719S 0 | EGFR_G719S_T790M 0 | EGFR_L718V 0 | EGFR_L858R 0 | EGFR_L861Q 0 | EGFR_T790M 0 | EPHA2 = 0 | ERBB3 = 0 | [1] 0

CN1CC[C@H](c2c(O)cc(O)c3c(=O)cc(-c4ccc(C(F)(F)F)cc4Cl)oc23)[C@H]1CO [(2S,3R)-Voruciclib (hydrochloride)] (2.5 µM)
inactive: EGFR 0 | EGFR_G719S 0 | EGFR_G719S_T790M 0 | EGFR_L718V 0 | EGFR_L858R 0 | EGFR_L861Q 0 | EGFR_T790M 0 | EPHA2 = 0 | ERBB3 = 0 | [1] 0

Nc1nc2cc(-c3ccc4ncc(C(=O)N5CCOCC5)n4c3)ccc2o1 [Serabelisib] (10 µM)
inactive: EGFR 0 | EGFR_G719S 0 | EGFR_G719S_T790M 0 | EGFR_L718V 0 | EGFR_L858R 0 | EGFR_L861Q 0 | EGFR_T790M 0 | EPHA2 = 0 | ERBB3 = 0 | [1] 0

CC(=O)Nc1nc2ccc(-c3cnc(C)c(NC(=O)OC4CCCCC4)c3)cc2s1 (10 µM)
inactive: EGFR 0 | EGFR_G719S 0 | EGFR_G719S_T790M 0 | EGFR_L718V 0 | EGFR_L858R 0 | EGFR_L861Q 0 | EGFR_T790M 0 | EPHA2 = 0 | ERBB3 = 0 | [1] 0

O=[N+]([O-])c1ccc(Sc2cccc[n+]2[O-])c2nonc12 (2.5 µM)
inactive: EGFR 0 | EGFR_G719S 0 | EGFR_G719S_T790M 0 | EGFR_L718V 0 | EGFR_L858R 0 | EGFR_L861Q 0 | EGFR_T790M 0 | EPHA2 = 0 | ERBB3 = 0 | [1] 0

CCCCCCCC/C=C\CCCCCCCC(=O)NCC(=O)O [N-Oleoyl glycine] (10 µM)
inactive: EGFR 0 | EGFR_G719S 0 | EGFR_G719S_T790M 0 | EGFR_L718V 0 | EGFR_L858R 0 | EGFR_L861Q 0 | EGFR_T790M 0 | EPHA2 = 0 | ERBB3 = 0 | [1] 0

NS(=O)(=O)c1ccc(N2N=C(c3ccccc3)CC2c2ccccc2)cc1 (stereo not given) (10 µM)
inactive: EGFR 0 | EGFR_G719S 0 | EGFR_G719S_T790M 0 | EGFR_L718V 0 | EGFR_L858R 0 | EGFR_L861Q 0 | EGFR_T790M 0 | EPHA2 = 0 | ERBB3 = 0 | [1] 0

O=S(=O)(c1cccc2cnccc12)N1CCNCC1 (10 µM)
inactive: EGFR 0 | EGFR_G719S 0 | EGFR_G719S_T790M 0 | EGFR_L718V 0 | EGFR_L858R 0 | EGFR_L861Q 0 | EGFR_T790M 0 | EPHA2 = 0 | ERBB3 = 0 | [1] 0

CC[C@H](C)[C@H](NC(=O)[C@H](CCC(=O)O)NC(=O)[C@H](CCCN=C(N)N)NC(=O)[C@H](CCCN=C(N)N)NC(=O)[C@@H](N)CCCCN)C(=O)N[C@@H](CC(C)C)C(=O)N[C@@H](CO)C(=O)N[C@@H](CCCN=C(N)N)C(=O)N[C@@H](CCCN=C(N)N)C(=O)N1CCC[C@H]1C(=O)N[C@@H](CO)C(=O)N[C@@H](Cc1ccc(O)cc1)C(=O)N[C@@H](CCCN=C(N)N)C(=O)O [CREBtide] (10 µM)
inactive: EGFR 0 | EGFR_G719S 0 | EGFR_G719S_T790M 0 | EGFR_L718V 0 | EGFR_L858R 0 | EGFR_L861Q 0 | EGFR_T790M 0 | EPHA2 = 0 | ERBB3 = 0 | [1] 0

O=C(O)c1ccc(N2N=C(Cc3ccccc3)C(=Cc3ccc(-c4ccccc4F)o3)C2=O)cc1 (10 µM)
inactive: EGFR 0 | EGFR_G719S 0 | EGFR_G719S_T790M 0 | EGFR_L718V 0 | EGFR_L858R 0 | EGFR_L861Q 0 | EGFR_T790M 0 | EPHA2 = 0 | ERBB3 = 0 | [1] 0

CC(C)c1cnn2c(NCc3ccccc3-n3cccn3)nc(OC3CCCNC3)nc12 (stereo not given) (2.5 µM)
inactive: EGFR 0 | EGFR_G719S 0 | EGFR_G719S_T790M 0 | EGFR_L718V 0 | EGFR_L858R 0 | EGFR_L861Q 0 | EGFR_T790M 0 | EPHA2 = 0 | ERBB3 = 0 | [1] 0

COc1ccc2c(c1)c(C1=C(c3c[nH]c4ccccc34)C(=O)NC1=O)cn2CCCN(C)C (10 µM)
inactive: EGFR 0 | EGFR_G719S 0 | EGFR_G719S_T790M 0 | EGFR_L718V 0 | EGFR_L858R 0 | EGFR_L861Q 0 | EGFR_T790M 0 | EPHA2 = 0 | ERBB3 = 0 | [1] 0

O=C(O)c1ccccc1Nc1cccc(C(F)(F)F)c1 [Flufenamic acid] (10 µM)
inactive: EGFR 0 | EGFR_G719S 0 | EGFR_G719S_T790M 0 | EGFR_L718V 0 | EGFR_L858R 0 | EGFR_L861Q 0 | EGFR_T790M 0 | EPHA2 = 0 | ERBB3 = 0 | [1] 0

CCOc1nc(Nc2ccc(C(=O)N3CCOCC3)cc2OC)nc2[nH]ccc12 [LRRK2 inhibitor 1] (2.5 µM)
inactive: EGFR 0 | EGFR_G719S 0 | EGFR_G719S_T790M 0 | EGFR_L718V 0 | EGFR_L858R 0 | EGFR_L861Q 0 | EGFR_T790M 0 | EPHA2 = 0 | ERBB3 = 0 | [1] 0
